## Primary screen of a compound library

By UniProt entry, the sequences of proteins in these tests, tags left out.
UniProt E9BF75, entry or part of it: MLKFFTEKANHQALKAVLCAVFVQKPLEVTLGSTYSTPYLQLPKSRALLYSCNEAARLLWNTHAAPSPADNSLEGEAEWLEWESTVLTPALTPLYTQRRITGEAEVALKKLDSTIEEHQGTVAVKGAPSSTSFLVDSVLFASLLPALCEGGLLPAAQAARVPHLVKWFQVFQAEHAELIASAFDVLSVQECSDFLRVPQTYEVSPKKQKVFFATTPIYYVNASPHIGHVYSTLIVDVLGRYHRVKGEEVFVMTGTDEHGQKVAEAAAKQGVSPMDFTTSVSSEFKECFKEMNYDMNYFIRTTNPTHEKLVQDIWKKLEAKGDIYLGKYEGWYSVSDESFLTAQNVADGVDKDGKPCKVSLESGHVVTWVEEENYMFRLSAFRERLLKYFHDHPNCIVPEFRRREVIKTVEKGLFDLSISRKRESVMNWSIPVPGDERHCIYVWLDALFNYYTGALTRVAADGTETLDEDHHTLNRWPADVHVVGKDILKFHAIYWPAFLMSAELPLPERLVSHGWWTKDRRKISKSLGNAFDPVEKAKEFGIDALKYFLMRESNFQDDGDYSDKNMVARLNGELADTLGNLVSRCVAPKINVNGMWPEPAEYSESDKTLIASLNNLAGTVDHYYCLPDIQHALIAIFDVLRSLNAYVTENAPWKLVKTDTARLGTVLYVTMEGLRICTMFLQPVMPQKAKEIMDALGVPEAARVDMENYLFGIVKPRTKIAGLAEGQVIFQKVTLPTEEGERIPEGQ

The values are deposited in ChEMBL (CHEMBL3988442, “University of Dundee, Small-Polar-MMV Screening Library” (2021)).

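Methionyl-tRNA synthetase (putative), Leishmania donovani (UniProt E9BF75). Primary screen of methionyl-tRNA synthetase; the read-out is not stated. The test concentration is not given. Values are per cent inhibition. Size under these conditions: about 68,000 compounds, about 24 of them at 50% or above in at least one test.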

All values are in %.
The controls that fix the scale are not given in the record; negative values are as filed.
This is an unselected part of the compounds tested.

| Compound | inhibition |
|---|---|
| `Cn1cc(C(=O)CC2CCCN2C(=O)c2ccc(Cl)cn2)cn1` (stereo not shown) | 8.993 |
| `O=C(c1ccc(-n2cccn2)c(F)c1)N1CCCN2CCCC2C1` (stereo not shown) | 23.92 |
| `O=C(NS(=O)(=O)c1c(Cl)cccc1Cl)c1cccc2c1OCCO2` | 10.78 |
| `CCS(=O)(=O)Nc1ccc2oc(C)c(C(C)=O)c2c1` | 7.914 |
| `Cc1nc(Cn2c3c(ccc2=O)CCN(CC2CCC2)CC3)cs1` | 10.8 |
| `Cc1occc(=O)c1OCC(=O)N1CCN(c2cccc(Cl)c2)CC1` | 16.91 |
| `COc1ccc(CNc2cc3[nH]c(O)nc3cc2C)cc1` | 16.32 |
| `CCc1nc(C2CCCN(C(=O)c3ccc(O)nc3)C2)no1` (stereo not shown) | 9.945 |
| `COCCn1cnnc1Cn1ccnc1-c1ccsc1` | 9.317 |
| `CCCOc1ccccc1C(N)CC(C)C` (stereo not shown) | 3.78 |
| `CCc1cccc(C)c1NC(=O)C1CC(=O)N(Cc2ccccn2)C1` (stereo not shown) | 7.833 |
| `CCOc1ccc(N2CCCN=C2NC(=O)c2cccc(Cl)c2)cc1` | 11.81 |
| `O=c1cc(CNCc2ccc3c(c2)OCO3)nc2ccccn12` | 13.44 |
| `Cc1ccc2nc(C3CCCN(CC(C)C)C3)nc(O)c2c1` (stereo not shown) | 4 |
| `O=C(COc1ccccc1N1CCCC1)N1CCN[C@H]2CS(=O)(=O)C[C@H]21` | 11.39 |
| `CCCNS(=O)(=O)Cc1ccc(Br)cc1` | 10.09 |
| `CC(=O)NCCC(=O)NCc1ccc(Br)cc1Cl` | 11.11 |
| `O=C(CN1CCCCC1)Nc1cc(C(F)(F)F)ccc1-n1cccc1` | 12.4 |
| `COC[C@@]12CC[C@@H](N3CCOCC3)C[C@H]1CCN(c1cnccn1)C2` | -1.099 |
| `COc1ccc(F)cc1CN1CCCC1Cn1nc(C)nc1C` (stereo not shown) | 13.66 |
| `O=C(CCc1ccccn1)N1CCCC(n2cncn2)C1` (stereo not shown) | 13.89 |
| `Cc1cc(CN2CCC(c3cc(Cc4ccccc4)n[nH]3)CC2)[nH]n1` | 12.99 |
| `Cc1cc(C(=O)N2C[C@@H]3CN(S(C)(=O)=O)CCO[C@@H]3C2)c(C)o1` | -0.346 |
| `CCc1nc(N2CCCC(CCCOC)C2)c2cnn(C)c2n1` (stereo not shown) | 10.75 |
| `CC(NCc1ccnc(OC2CCC2)c1)c1cnn(C)c1` (stereo not shown) | 3.175 |
| `O=C(O)c1csc(S(=O)(=O)Nc2cccc(OC(F)F)c2)c1` | 5.521 |
| `CCc1n[nH]c(C2CN(Cc3nnc(C4CC4)n3C)CCO2)n1` (stereo not shown) | 5.556 |
| `CSCC[C@@H](CO)Nc1ccc(-c2nc(-c3ccccc3F)no2)cn1` | 8.711 |
| `Cc1ccc(N2CCCN(C(=O)C3CCCO3)CC2)nn1` (stereo not shown) | 27.78 |
| `O=C1NC2(CCNCC2)CC1c1ccccc1` (stereo not shown) | 3.297 |
| `COC(=O)CC1CCN(C(=O)c2ccc(-n3nnnc3C)cc2)CC1` | 11.26 |
| `CC(C)NC(=O)N1CCC2(CCC(=O)N2CCN2CCCC2)CC1` | 11.76 |
| `Cc1noc(C)c1CN1CCn2cc(CNc3ccccn3)nc2C1` | 9.341 |
| `Cc1nc(N2C[C@@H](CN3CCCN(C)CC3)[C@@H](CO)C2)c2sccc2n1` | 3.896 |
| `Cc1nc(CN2CCN(C(=O)c3sccc3C)CC2)cs1` | 14.92 |
| `CCN(CC)c1ncc(CNCC2CCCn3ccnc32)s1` (stereo not shown) | 9.091 |
| `Cc1cc(F)c(C(C(=O)O)N2CCN(Cc3ccccn3)CC2)cc1Cl` (stereo not shown) | 13.19 |
| `Cc1noc(CS(=O)(=O)CC(=O)NC(C)c2ccccc2)n1` (stereo not shown) | 14.93 |
| `CSc1nccc(N2C[C@@H]3CC[C@H](C2)N(CC2CCC2)C3=O)n1` | -1.489 |
| `O=C(c1cc2cccc(F)c2[nH]1)N1C[C@@H](O)[C@H](N2CCOCC2)C1` | 16.04 |
| `Cc1ccc(N2CCCC(NCc3nnc(-c4ccco4)o3)C2)nn1` (stereo not shown) | 19.7 |
| `CC(C)Cn1[nH]cc/c1=N\C(=O)CN1CCOC(Cn2cccn2)C1` (stereo not shown) | -1.031 |
| `CC(C)c1cccc(CSc2nnc(Cn3cncn3)o2)n1` | 6.25 |
| `COCCS(=O)(=O)NC(C)c1cccc(-n2cccn2)c1` (stereo not shown) | 5.236 |
| `O=C(CC1OCCc2ccccc21)NCCn1cccc1` (stereo not shown) | 11.72 |
| `Cc1nc(CN2C(=O)CCC23CCN(Cc2ccccn2)CC3)cs1` | 17.26 |
| `CC(C)c1nnc2n1CC(CNCc1nnc(C(C)(C)C)o1)CC2` (stereo not shown) | -0.2688 |
| `CCNC(=O)NCc1ccccc1NS(=O)(=O)c1ccccc1` | -0.9639 |
| `CCOC(=O)[C@@H]1[C@@H](c2ccccc2)CN2CCN(C(C)=O)C[C@H]12` | 7.397 |
| `CCC[C@H]1CN(C(=O)CCn2ccccc2=O)C[C@@H]1NS(C)(=O)=O` | 2.842 |
| `CSCc1noc(CNC(=O)[C@H]2CNC[C@@H](C(=O)N3CCCC3)C2)n1` | 9.645 |
| `N#Cc1cccnc1N1CCN(S(=O)(=O)NCc2ccccc2)CC1` | 13.91 |
| `Cc1csc2c(N3CCNC(C(=O)Nc4ccc(F)cc4)C3)ncnc12` (stereo not shown) | 6.65 |
| `COCCn1ccc2cc(C(=O)NC3CCOC(C)(C)C3)ccc21` (stereo not shown) | 15.09 |
| `Cc1cncc(C(=O)N2CCCCC2c2nc(C)cs2)c1` (stereo not shown) | -0.4049 |

For reference, 4 entries once more:

O=C(O)c1csc(S(=O)(=O)Nc2cccc(OC(F)F)c2)c1 gave 5.521%.
CSCC[C@@H](CO)Nc1ccc(-c2nc(-c3ccccc3F)no2)cn1 gave 8.711%.
CSCc1noc(CNC(=O)[C@H]2CNC[C@@H](C(=O)N3CCCC3)C2)n1 gave 9.645%.
COc1ccc(CNc2cc3[nH]c(O)nc3cc2C)cc1 gave 16.32%.